Results published in patent publication US20230014352A1, “INHALED STATINS AS BRONCHODILATORS TO IMPROVE LUNG FUNCTION IN RESPIRATORY DISEASES” (priority 2019, published 2023).
For at least one compound, name, drawing or mass did not settle the structure.

What was measured:
[1] = test system: HBE1 cells, eotaxin-3; conditions: 10^−7 M, 72 hours, FIG. 16
[2] = test system: primary human airway smooth muscle (ASM) cells; assay: Contractile force screening (CFS), basal ASM cell contraction (strain energy); format: cell-based; conditions: for ASM contraction / ASM cell relaxation: FIG. 10A; for strain energy (ASM contraction): compared to pravastatin, FIG. 1C
Experimental: Primary human airway smooth muscle (ASM) cells derived from both non-asthmatic and asthmatic donors were obtained from the Gift of Hope Organ and Tissue Donor Network. These cells have been well-characterized previously (see for example H. Yoshie et al., Biophys J (2018) 114(9):2194-99). All measurements were performed using cells at passage 5-8 from three non-asthmatic donors. Cells were grown on either 10% serum-containing F12 complete media, or serum-deprived media supplemented with insulin, transferrin, and selenium (Corning, Tewksbury, Mass.). Contractile Force Screening: Human ASM cells were grown to confluence in 96-well plates on custom NuSilTM 8100 elastic substrates (Avantor, Inc., Radnor, Pa.) (R. […] Fluorescent beads (diameter 400 nm) were embedded in the substrate surface to enable traction force calculations based on their displacements. To measure fractions, an inverted epi-fluorescence microscope (DMI 6000B, Leica Inc., Germany) equipped with a heated chamber (37° C.), a monochrome camera ([…]), and a motorized stage was used. Spatial images were recorded of substrate-embedded fluorescent beads at 10× magnification. Based on the bead displacements (resolution 15 μm) relative to a cell-free model, together with knowledge of substrate stiffness and thickness, fractions were computed using the approach of Fourier Transform Traction Cytometry ([…] et al., Pharmacol Ther (2014) 143(1):87-110), modified to the case of cell monolayers ([…] et al., Cell (2007) 129(3):511-22). From each fraction map, the root-mean-squared traction (RMST) value and strain energy were calculated and reported as a measure of normal contraction in the monolayer. On a well-by-well basis, the ratio of the strain energy after vs. before treatment was computed, and all values of a given treatment group were normalized to the mean of each treatment group. Comparison of Statins: […] MA is the immediate product of HMGCR action on HMB-CoA, so addition of MA would reverse the effect of statin inhibition of HMGCR. […] Simvastatin-acid (SA), atorvastatin, pravastatin, and pitavastatin were examined with CFS to determine the dose response of the ASM relaxation effect. […] From each ASM force map, the strain energy (i.e., the energy that is imparted to the substrate by the contractile cells, in pJ) was computed, to represent the average cellular contraction.

[3] = test system: leukotriene B4 (LTB4); assay: Inhaled (nebulized) simvastatin in rhesus macaques, LTB4 levels; format: in vivo, rhesus macaque
[4] = test system: thromboxane B2 (TXB2); assay: Inhaled (nebulized) simvastatin in rhesus macaques, TXB2 levels; format: in vivo, rhesus macaque
[5] = nebulized 1 mg/kg, 7 consecutive days, day=12

## C[C@@H]1C[C@H]2[C@@H]3CCC4=CC(=O)C=C[C@]4(C)[C@@]3(F)[C@@H](O)C[C@]2(C)[C@@]1(O)C(=O)CO [dexamethasone]
[1]
  IL13-induced eotaxin-3 extracellular secretion: independently inhibited

## CC[C@H](C)C(=O)O[C@H]1C[C@H](O)C=C2C=C[C@H](C)[C@H](CC[C@@H](O)C[C@@H](O)CC(=O)O)[C@H]21 [pravastatin]
[2]; 1 μM, 24 hours, FIG. 1A/1D
  basal ASM cell contraction: little to no effect
[2]
  ASM contraction / ASM cell relaxation: did not
[2]; listed as Pravastatin
  ASM contraction / ASM cell relaxation: no beneficial effect

## CCC(C)(C)C(=O)O[C@H]1C[C@@H](C)C=C2C=C[C@H](C)[C@H](CC[C@@H]3C[C@@H](O)CC(=O)O3)[C@H]21 [simvastatin]
[2]; 0.4 μM, 24 hours
  strain energy (ASM contraction): significant reduction in strain energy
[2]; 2 and 10 μM, 24 hours
  strain energy (ASM contraction): significantly (and further) reduce strain energy
[3]; inhaled (nebulized), FIG. 8
  basal levels of LTB4: inhibits
[3]; [5]
  LTB4 in lung tissue: no significant change
  LTB4 in the BAL fluid: significantly reduced
[4]; inhaled (nebulized), FIG. 8
  basal levels of TXB2: inhibits
[4]; [5]
  TXB2 in lung tissue: significantly inhibited
  TXB2 levels in BAL fluid: positive trend of reduced TXB2 levels
